Source: PubChem BioAssay AID493246 (Drosophila RNAi Screening Center, 2011)

Assay: 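Identify essential fly genes by loss of cell viability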 (primary screen)
Cell system: Drosophila Kc and S2R+ cells
Reagents: long dsRNA against Drosophila genes
Read-out: 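Raw, unnormalised count of remaining cells in each well; per-plate z-scores of cell number underlie the calls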
Scale: Kc cell number and S2R+ cell number: higher = more cells remaining
Rule for the call: 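Counted as a hit if cell number falls by a z-score of at least 3 within its plate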
In all, the deposit lists about 21,000 reagents; below is an unselected part of those that have a named target and a result. In the full data, 429 (2%) got an active call. 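Values are raw and not normalised between plates; calls rest on per-plate z-scores that were not deposited.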 A plus sign joins genes that one reagent is predicted to hit. Not given: the amount of reagent, the time to read-out.

Kc cell number, rep 1	Kc cell number, rep 2	S2R+ cell number, rep 1	S2R+ cell number, rep 2	call	Gene	DRSC id
5.61e5		9.46e5		inactive	HIP + HIP-R	DRSC18245
1.52e6	1.43e6	9.85e5	1.12e6	inactive	Ir7g	DRSC18008
1.57e6	1.38e6	9.93e5	1.26e6	inactive	CG13908 (retired record)	DRSC08378
1.41e6	1.59e6	1.13e6	3.06e5	inactive	mRpL13	DRSC02076
1.70e6	1.74e6	1.17e6	2.13e5	inactive	fok	DRSC02103
1.56e6	1.70e6	1.26e6	1.36e6	inactive	Dic1	DRSC14125
1.64e6	1.62e6	1.43e6	1.47e6	inactive	CG11309	DRSC11650
1.54e6	1.37e6	1.06e6	1.03e6	inactive	CG34148 + P5CDh2	DRSC13519
1.54e6	1.63e6	1.07e6	1.14e6	inactive	CG11703	DRSC14356
1.91e6	1.90e6	1.29e6	1.46e6	inactive	CG14658	DRSC12244
1.42e6	1.52e6	1.10e6	1.27e6	inactive	Dop1R1	DRSC13021
1.64e6	1.51e6	1.06e6	1.19e6	inactive	Dop1R1	DRSC16652
1.43e6	1.54e6	1.31e6	3.15e5	inactive	CG33322	DRSC03204
1.26e6	1.51e6	1.25e6	1.38e6	inactive	CG33257	DRSC09917
1.52e6	1.58e6	1.11e6	1.21e6	inactive	wda	DRSC15579
1.47e6	1.56e6	1.22e6	1.44e6	inactive	CG4793	DRSC01966
1.36e6	1.48e6	1.09e6	1.18e6	inactive	RpS5b	DRSC16173
1.54e6	1.54e6	1.30e6	1.40e6	inactive	wbl	DRSC07718
1.33e6	1.34e6	5.92e5	6.79e5	inactive	l(2)dtl	DRSC04697
1.49e6	1.64e6	1.15e6	1.32e6	inactive	CG33702	DRSC08986
1.59e6	1.49e6	9.54e5	1.03e6	inactive	CG4960	DRSC15684
1.63e6	1.71e6	1.03e6	1.11e6	inactive	Taf4	DRSC11297
1.26e6	1.41e6	1.27e6	1.41e6	inactive	twy	DRSC10562
1.23e6	1.52e6	1.05e6	1.09e6	inactive	CG34024 (retired record)	DRSC13734
1.38e6	1.45e6	1.19e6	1.20e6	inactive	Ih	DRSC07445
1.44e6	1.48e6	1.14e6	1.10e6	inactive	CG5687	DRSC08568
1.34e6	1.36e6	8.90e5	1.03e6	inactive	grim	DRSC11352
1.48e6	1.71e6	1.39e6	1.45e6	inactive	MsrA	DRSC11159
1.49e6	1.56e6	1.33e6	1.35e6	inactive	ScpX	DRSC03430
1.62e6	1.60e6	1.07e6	1.20e6	inactive	vex	DRSC19481
1.61e6	1.59e6	1.02e6	1.21e6	inactive	vex	DRSC19651
1.70e6	1.83e6	1.42e6	1.47e6	inactive	CG33770	DRSC11717
1.47e6	1.59e6	1.34e6	1.31e6	inactive	Dhod	DRSC16647
1.60e6	1.63e6	1.32e6	1.42e6	inactive	CG13284	DRSC02256
1.60e6	1.49e6	1.12e6	1.19e6	inactive	Syt12	DRSC19359
1.24e6	1.33e6	1.14e6	1.32e6	inactive	CG14369	DRSC14831
1.40e6	1.48e6	1.16e6	1.30e6	inactive	Pten	DRSC03402
1.42e6	1.50e6	1.04e6	1.17e6	inactive	CG6023	DRSC19970
1.51e6	1.56e6	1.35e6	1.35e6	inactive	CG14186	DRSC10185
1.41e6	1.49e6	1.00e6	1.09e6	inactive	CG42402	DRSC21116

Single entries from the entries so far.
Under “Kc cell number, rep 2”, CG14369 [DRSC14831] shows 1.33e6
Entry for vex [DRSC19481] under “Kc cell number, rep 1”: 1.62e6
For “S2R+ cell number, rep 2”, CG11309 [DRSC11650] is entered as 1.47e6
Entry of mRpL13 [DRSC02076] under “S2R+ cell number, rep 2”: 3.06e5
Value for CG6023 [DRSC19970] in “S2R+ cell number, rep 2”: 1.17e6
CG14186 [DRSC10185], call = inactive
